At least one read-out could not be matched to a standard name with certainty.
Tested on: SARS-CoV-2
Assay type: cell-based
Conditions: human epithelial cells

## O=CC[C@@H](O)[C@H](O)[C@H](O)CO [Example 2-DG, 2-deoxy-D-glucose]
  factor by which concentration required to inhibit SARS-CoV-2 replication is lower than IC50 concentration: at least 50 times
